Our source for the binding values is article PMC4077834.

Amino acid sequences for entries named in this document (tags omitted).
UniProt Q06330: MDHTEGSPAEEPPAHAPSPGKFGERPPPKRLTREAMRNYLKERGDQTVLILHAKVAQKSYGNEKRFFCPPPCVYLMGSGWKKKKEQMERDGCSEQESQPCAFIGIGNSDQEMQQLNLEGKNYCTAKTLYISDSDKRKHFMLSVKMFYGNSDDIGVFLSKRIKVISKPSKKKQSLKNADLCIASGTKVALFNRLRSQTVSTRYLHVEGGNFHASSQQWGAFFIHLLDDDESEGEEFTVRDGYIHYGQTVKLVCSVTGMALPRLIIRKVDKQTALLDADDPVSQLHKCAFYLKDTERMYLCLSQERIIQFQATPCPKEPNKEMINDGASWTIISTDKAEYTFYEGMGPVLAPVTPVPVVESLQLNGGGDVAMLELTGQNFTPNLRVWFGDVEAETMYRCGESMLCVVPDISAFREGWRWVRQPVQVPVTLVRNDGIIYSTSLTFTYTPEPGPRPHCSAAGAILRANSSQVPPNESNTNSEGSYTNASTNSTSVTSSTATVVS

No constants are given. Whether binding was seen depends on the method and setting. Binding seen in cells or lysates may run through a third protein. Some results given as binding are weak or reduced against the parent protein; the word gives no strength. Sequences can lack the tags named with a protein.

For this experiment, the target named is Myc-tagged RBP-J (recombination signal binding protein-J) (UniProt Q06330). Kind of experiment: co-IP; HeLa cells co-transfected with pCMV-Myc-RBP-J and pEGFP-FHL1C; lysates 48 h post-transfection; immunoprecipitation with anti-Myc antibody (9E10), blot with anti-FHL1.

B1: EGFP-tagged FHL1C (human four-and-a-half LIM domain protein 1C) (protein, UniProt Q13642-3 1-194)
chain: MAEKFDCHYCRDPLQGKKYVQKDGHHCCLKCFDKFCANTCVECRKPIGADSKEVHYKNRFWHDTCFRCAKCLHPLANETFVAKDNKILCNKCTTREDSPKCKGCFKAIVAGDQNVEYKGTVWHKDCFTCSNCKQVIGTGSFFPKGEDFYCVTCHETKFAKHCVKCNKGLVKAPVWWPMKDNPGTTTASTAKNAP
For the molecule B1, the binding entry is reported as “binds”.
